Positions count from the first letter of the chain named. Names may count otherwise. No constants are given. Whether binding was seen depends on the method and setting. Some binding calls cover weakened binding; strength is not graded here.

Test [1] deals with T1, purified native oat phytochrome A, Pfr form (oat) (UniProt P06593).
T1 sequence (looked up): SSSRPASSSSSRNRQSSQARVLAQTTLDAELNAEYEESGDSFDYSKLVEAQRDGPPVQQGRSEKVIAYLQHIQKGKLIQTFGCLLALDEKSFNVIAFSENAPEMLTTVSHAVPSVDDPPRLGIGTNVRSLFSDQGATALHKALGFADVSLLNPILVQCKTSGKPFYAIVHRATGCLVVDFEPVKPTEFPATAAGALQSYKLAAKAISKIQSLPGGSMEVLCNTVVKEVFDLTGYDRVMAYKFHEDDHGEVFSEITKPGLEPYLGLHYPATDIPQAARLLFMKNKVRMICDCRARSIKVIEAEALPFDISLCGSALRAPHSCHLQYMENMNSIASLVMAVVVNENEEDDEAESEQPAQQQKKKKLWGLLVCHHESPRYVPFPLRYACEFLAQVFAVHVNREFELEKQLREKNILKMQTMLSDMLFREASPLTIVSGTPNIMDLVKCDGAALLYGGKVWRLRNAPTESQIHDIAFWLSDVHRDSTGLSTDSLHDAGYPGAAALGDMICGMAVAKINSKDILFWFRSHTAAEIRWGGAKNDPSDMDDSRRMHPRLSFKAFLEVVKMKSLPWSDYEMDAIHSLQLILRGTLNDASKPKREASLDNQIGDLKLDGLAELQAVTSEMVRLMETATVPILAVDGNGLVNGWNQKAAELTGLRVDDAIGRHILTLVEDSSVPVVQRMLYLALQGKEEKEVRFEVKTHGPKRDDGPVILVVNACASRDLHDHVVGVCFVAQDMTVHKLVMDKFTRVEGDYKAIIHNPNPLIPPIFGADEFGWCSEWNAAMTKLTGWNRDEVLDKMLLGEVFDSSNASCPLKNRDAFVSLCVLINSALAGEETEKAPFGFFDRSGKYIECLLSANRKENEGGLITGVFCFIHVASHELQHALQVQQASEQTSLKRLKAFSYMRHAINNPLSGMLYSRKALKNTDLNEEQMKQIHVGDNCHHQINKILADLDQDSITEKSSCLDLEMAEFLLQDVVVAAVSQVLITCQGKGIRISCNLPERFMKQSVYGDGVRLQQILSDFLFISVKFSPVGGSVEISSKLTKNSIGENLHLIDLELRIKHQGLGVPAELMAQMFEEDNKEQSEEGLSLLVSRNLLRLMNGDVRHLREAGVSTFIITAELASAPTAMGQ
As to the kind of experiment: immunoprecipitation with native oat phyA, western blot.

In test [2] the target is T1, purified native oat phytochrome A, Pfr form (oat). As to the kind of experiment: immunoprecipitation of native oat phyA with 14C-methionine-labeled NDPK2, scintillation counting.

B1: NDPK2 C-terminal deletion mutant R230Stop (enzyme)
chain: MEDVEETYIMVKPDGIQRGLVGEIISRFEKKGFKLIGLKMFQCPKELAEEHYKELSAKSFFLTLIEYITSGPVVCMAWEGVGVVASARKLIGKTDPLQAEPGTIRGDLAVQTGRNIVHGSDSPENGKREIGLWFKEGELCKWDSALATWL
For the molecule B1, the binding entry in test [1] is given as “binds”.

B2: NDPK2 C-terminal deletion mutant L225Stop (enzyme)
chain: MEDVEETYIMVKPDGIQRGLVGEIISRFEKKGFKLIGLKMFQCPKELAEEHYKELSAKSFFLTLIEYITSGPVVCMAWEGVGVVASARKLIGKTDPLQAEPGTIRGDLAVQTGRNIVHGSDSPENGKREIGLWFKEGELCKWDSA
As to B2, in test [1], the binding result is “binds”.

B3: Arabidopsis Nucleoside Di-Phosphate Kinase 2 (NDPK2), wild type (enzyme)
chain: ASSSAESGIFLPHLVASMEDVEETYIMVKPDGIQRGLVGEIISRFEKKGFKLIGLKMFQCPKELAEEHYKELSAKSFFLTLIEYITSGPVVCMAWEGVGVVASARKLIGKTDPLQAEPGTIRGDLAVQTGRNIVHGSDSPENGKREIGLWFKEGELCKWDSALATWLRE
modifications: 14C-labeled methionine incorporated (FIG. 1 binding assay)
Take B3: the binding entry in test [2] is reported as “binds”.

B4: NDPK2 Kpn loop mutant P175S (enzyme)
chain: B3 chain with P113S
As to B4, in test [1], the binding entry was “binds”.

B5: NDPK2 kinase site mutant H197C (enzyme)
chain: B3 chain with H135C
Turning to B5, the binding result in test [1] is reported as “binds”.

(Values after patent US20070136897A1, “Nucleic acid molecules encoding hyperactive nucleoside di-phosphate kinase 2 and uses thereof” (priority 2005, published 2007).)
